Values from PubChem BioAssay AID602196 (INSERM, 2012)
This is a random part of about 23,000 reagents tested. 455 of all reagents (2%) were called active. 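Active includes both protection and sensitisation; some change values fall well beyond the stated -50 to +50 range.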 Reagents against one gene are numbered here. Not all columns of the deposit are shown. Not given: the amount of reagent.

Test: 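Modifiers of cisplatin sensitivity in A549 cells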
System: human A549 lung cancer cells
Reagent: siRNA pair against human genes
Duration: 48 h transfection before cisplatin; time from cisplatin to read-out not stated
Challenge: cisplatin at a dose killing half of control-siRNA cells; exact dose and duration not given
Measurement: 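Shift in cisplatin death relative to control siRNA, from -50 (all cells die) to +50 (no cells die); siRNAs harmful on their own scored 0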
Reading the numbers: two-siRNA summed score (-2 to +2): higher = both siRNAs protect from cisplatin killing; -2 means both sensitise
Rule for the call: 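Each siRNA scores 0 if harmful alone by LDH or WST-1, otherwise +1 if it reduces and -1 if it increases cisplatin killing; a gene is active when both siRNAs agree (sum +2 or -2)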
Calls: active = both siRNAs shift cisplatin killing the same way; inactive = no consistent shift, or siRNA harmful alone

The first 9 entries as a preview:
Gene,reagent,two-siRNA summed score (-2 to +2),outcome
SMPDL3A,1,0,inactive
PPP1CA,1,0,inactive
LOC441803,1,0,inactive
OSR1,1,0,inactive
ZFP62,1,1,inactive
ADAM11,1,-1,inactive
RGS1,1,0,inactive
TGFBR2,1,2,active
FDXR,1,0,inactive

Results, from the first entry:
Gene,reagent,two-siRNA summed score (-2 to +2),outcome
SMPDL3A,1,0,inactive
PPP1CA,1,0,inactive
LOC441803,1,0,inactive
OSR1,1,0,inactive
ZFP62,1,1,inactive
ADAM11,1,-1,inactive
RGS1,1,0,inactive
TGFBR2,1,2,active
FDXR,1,0,inactive
PAICS,1,0,inactive
OR5P2,1,-1,inactive
GHDC,1,0,inactive
VGLL4,1,0,inactive
TBC1D10B,1,0,inactive
VIT,1,0,inactive
SLC52A1,1,2,active
TLE5,1,0,inactive
FAM8A1,1,0,inactive
SNHG29,1,0,inactive
PLCZ1,1,1,inactive
LOC440045,1,0,inactive
TNFSF13B,1,0,inactive
SLC12A1,1,0,inactive
FANCC,1,0,inactive
FOXL1,1,0,inactive
FUT2,1,1,inactive
TMPRSS7,1,0,inactive
LOC441059,1,0,inactive
LOC388655,1,0,inactive
LOC339685,1,0,inactive
TIAM2,1,0,inactive
TIMP3,1,0,inactive
RHOXF2,1,0,inactive
LOC389782,1,0,inactive
SERINC1,1,0,inactive
ITM2B,1,-1,inactive
EEF1A1,1,0,inactive
KIR2DL3,1,1,inactive
FGF21,1,0,inactive
ZNF165,1,0,inactive
ATAT1,1,0,inactive
MRM2,1,1,inactive
ANKRD20A19P,1,-1,inactive
DKFZp761D1918,1,0,inactive
CKAP5,1,0,inactive
GOLGA2P11,1,0,inactive
MMP11,1,-1,inactive
RRAD,1,-1,inactive
NLE1,1,1,inactive
CSMD1,1,0,inactive
LOC389599,1,0,inactive
HEATR6,1,1,inactive
DDX43,1,0,inactive
FNDC3A,1,1,inactive
TYR,1,-1,inactive
LOC388401,1,0,inactive
DPPA3,1,0,inactive
TSHZ1,1,0,inactive
FAM124B,1,0,inactive
TMEM258,1,-1,inactive
FRS3,1,-1,inactive
VTI1A,1,0,inactive
VTI1A,2,1,inactive
USP50,1,1,inactive
SNURF,1,1,inactive
LOC285940,1,1,inactive
SELENOI,1,0,inactive
SLC22A15,1,0,inactive
ZCCHC9,1,0,inactive
CDH9,1,0,inactive
PRKG2,1,-1,inactive
TBC1D3C,1,0,inactive
ZC3H7B,1,1,inactive
